# Assay results reported in the supplement of paper PMC3334620.
# Whole data set: some 33,000 sequences, median “E-score (-0.5 to 0.5)” near -0.016, cut for the highest 2% near 0.3. The list shows a part of the results.
# Biological target: T1, Yer184c (UniProt P39961)
# T1 sequence: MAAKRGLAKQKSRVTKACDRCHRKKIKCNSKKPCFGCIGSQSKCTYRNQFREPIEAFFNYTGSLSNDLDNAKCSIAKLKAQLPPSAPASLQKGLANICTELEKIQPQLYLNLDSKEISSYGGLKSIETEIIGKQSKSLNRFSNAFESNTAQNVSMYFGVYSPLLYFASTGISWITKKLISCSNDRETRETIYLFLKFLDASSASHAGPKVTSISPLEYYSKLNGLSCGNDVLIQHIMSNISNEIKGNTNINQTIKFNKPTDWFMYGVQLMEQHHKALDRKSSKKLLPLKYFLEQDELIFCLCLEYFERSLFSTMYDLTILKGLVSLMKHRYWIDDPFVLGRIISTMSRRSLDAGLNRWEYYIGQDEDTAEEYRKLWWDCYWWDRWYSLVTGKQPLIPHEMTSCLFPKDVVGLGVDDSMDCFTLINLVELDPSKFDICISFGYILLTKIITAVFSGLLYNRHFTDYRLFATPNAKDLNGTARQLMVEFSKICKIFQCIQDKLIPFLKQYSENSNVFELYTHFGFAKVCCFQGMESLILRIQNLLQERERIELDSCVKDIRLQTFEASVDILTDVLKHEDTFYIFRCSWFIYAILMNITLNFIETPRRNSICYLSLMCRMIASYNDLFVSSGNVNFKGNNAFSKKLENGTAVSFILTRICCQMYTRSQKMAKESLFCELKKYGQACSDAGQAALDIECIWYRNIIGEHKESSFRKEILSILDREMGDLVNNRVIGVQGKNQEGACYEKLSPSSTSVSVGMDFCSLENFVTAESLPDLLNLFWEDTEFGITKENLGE
# Test: PBM E-score (8-mer binding enrichment) (E-score (-0.5 to 0.5)); higher = stronger / more preferred TF binding
# Details: protein concentration: 100 nM; construct: GST-full length
# Method: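 Universal 'all 10-mer' protein binding microarrays (Agilent AMADID 015681) probed with GST-tagged S. cerevisiae TFs (full-length or DBD) made by in vitro transcription/translation (PURExpress), about 100-200 nM. Bound TF was detected with fluorescent anti-GST. Each ungapped 8-mer (which stands for itself and its reverse complement) is scored by the PBM enrichment score (E-score), a modified Wilcoxon-Mann-Whitney statistic from -0.5 to +0.5, computed with the Universal PBM Analysis Suite. Scale: above 0.35 generally sequence-specific binding.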
row,Sequence,PBM E-score
1,CCAGCAAC,0.0735
2,CGGATTTA,0.237
3,ATGAGATA,0.124
4,CCCGTCTC,-0.0981
5,TCCGAGGA,0.196
6,CCGGTCCG,0.338
7,GGACTTAC,0.00774
8,GATTGGCA,-0.0664
9,CTACCCTC,-0.288
10,ACCAGCAA,0.144
11,ACGAGCCT,-0.239
12,AGCTAGAC,-0.028
13,AGCGTATC,-0.14
14,CGTAGGCC,-0.0105
15,GCCCTCGA,-0.255
16,ATGGGTTG,-0.0884
17,CTAAGCAG,-0.0601
18,GCACCCAA,0.0119
19,TCAATCCA,-0.0474
20,GCGATCAA,-0.057
21,GTCATGTA,-0.0449
22,CCCTTTGC,-0.137

row,Sequence,PBM E-score
1,ATTTCGGC,0.373
2,AGTGTTTA,0.201
3,CAGCTGCC,0.134
4,AGCCAAGA,-0.128
5,GTCAGTGA,-0.0735
6,TCCGATCA,0.255
7,ACATATAT,0.187
8,CACTACGG,0.148
9,ACGACGGC,-0.0816
10,AGTGACGG,0.0316
11,ACTTTGCC,0.0966
12,AGAGAAAA,0.108
13,ATTGGACG,-0.0777
14,GTATATAA,0.134
15,CAAGCATG,-0.115
16,CAATTCAA,0.0828
17,ACCTTAAT,-0.124
18,AATCGGGC,0.0528
19,CGACGGGC,0.0443
20,CATTCGCG,-0.0115
21,CTAACGGC,0.207
22,ACAATCCA,0.0596

row,Sequence,PBM E-score
1,AACTTAGC,-0.0959
2,AGATAAAG,0.0667
3,ATTTAAAT,0.243
4,GGATTGCC,0.00854
5,ATGACTCG,-0.0759
6,ACACGAGC,-0.069
7,CTGGGACC,-0.278
8,CCGCGATC,0.0479
9,CATTCCAC,-0.179
10,CTGCTCAA,-0.0916
11,GGCAAGCA,-0.114
12,ACTGTGAC,-0.0772
13,AACCATAG,0.0864
14,GGCTTAGA,-0.186
15,AACTCCAG,-0.214
16,ACTTCACT,-0.0893
17,AGTTGGCA,-0.103
18,AATAAGGA,-0.121
19,ATTTAAAG,0.302
20,GCAATGAA,0.22
21,GTGATAGA,-0.15
22,GCGGAAGC,0.105

# A section from further up, for reference:
row,Sequence,PBM E-score
12,AGAGAAAA,0.108
13,ATTGGACG,-0.0777
14,GTATATAA,0.134
15,CAAGCATG,-0.115

# (list continues)

row,Sequence,PBM E-score
1,ACTATCGG,0.112
2,CAATGTCA,0.0764
3,ACGTAATC,-0.113
4,CTTCCGTA,0.322
5,TCACGGCA,0.096
6,CCGAGGCG,0.171
7,CCACATCA,-0.0682
8,ACTCTGTG,0.0457
9,ACCCCTGA,-0.195
10,ATGGATTC,0.0188
11,AACCCCGG,0.071
12,AAGGTCAT,-0.106
13,AATTGAGT,0.152
14,CGGTGCCC,0.0372
15,CTGTAACA,-0.171
16,AAAAAAGT,0.126
17,GGATGACA,0.0539
18,ATCCAAGG,-0.0413
19,CTTAGTTA,0.0782
20,ACAGTCGG,0.145
